{"source": "paper PMC3948876", "key": {"[1]": {"target": "T1, full-length FLAG-human PIASγ (human) (UniProt Q8N2W9)", "T1 sequence": "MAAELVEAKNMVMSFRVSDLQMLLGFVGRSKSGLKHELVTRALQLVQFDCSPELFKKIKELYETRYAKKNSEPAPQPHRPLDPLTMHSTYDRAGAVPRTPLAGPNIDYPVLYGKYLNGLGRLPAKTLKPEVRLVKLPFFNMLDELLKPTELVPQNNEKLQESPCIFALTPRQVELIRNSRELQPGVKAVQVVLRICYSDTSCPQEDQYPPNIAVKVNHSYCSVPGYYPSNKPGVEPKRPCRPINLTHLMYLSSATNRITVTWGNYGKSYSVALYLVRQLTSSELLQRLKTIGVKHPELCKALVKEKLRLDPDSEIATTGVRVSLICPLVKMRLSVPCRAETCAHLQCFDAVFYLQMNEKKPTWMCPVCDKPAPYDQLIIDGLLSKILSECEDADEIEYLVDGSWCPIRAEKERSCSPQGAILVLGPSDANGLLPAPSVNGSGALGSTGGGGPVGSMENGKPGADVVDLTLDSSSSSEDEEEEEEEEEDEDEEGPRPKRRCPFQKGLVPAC", "experiment": "co-IP; reverse: HEK293T co-transfected; anti-FLAG antibody on Protein A agarose; NEM in the lysis buffer; Western blot"}, "[2]": {"target": "full-length mouse tomosyn-m1 with C-terminal mycHis tag (mouse)", "experiment": "co-IP; HEK293T co-transfected; anti-myc antibody on Protein A agarose; no NEM in the lysis buffer; low and high salt washes; Western blot"}, "[3]": {"target": "full-length mouse tomosyn-m1 with C-terminal mycHis tag (mouse)", "experiment": "co-IP; HEK293T co-transfected; anti-myc antibody on Protein A agarose; 20 mM NEM in the lysis buffer; low (100 mM NaCl) and high (500 mM NaCl) salt washes; Western blot"}}, "note": "Results are given in words; binding and its absence hold for the method and conditions named. In cells and extracts the contact can be indirect. For part of these data: Binding calls can cover weak binding; strength is not graded here. Sequences can lack the tags named with a protein."}
{"molecule": "full-length mouse tomosyn-m1 with C-terminal mycHis tag", "values": [{"measurement": "binding", "setting": "[1]", "value": "binds weakly"}]}
{"molecule": "full-length FLAG-human PIASγ (enzyme, UniProt Q8N2W9 1-510) MAAELVEAKNMVMSFRVSDLQMLLGFVGRSKSGLKHELVTRALQLVQFDCSPELFKKIKELYETRYAKKNSEPAPQPHRPLDPLTMHSTYDRAGAVPRTPLAGPNIDYPVLYGKYLNGLGRLPAKTLKPEVRLVKLPFFNMLDELLKPTELVPQNNEKLQESPCIFALTPRQVELIRNSRELQPGVKAVQVVLRICYSDTSCPQEDQYPPNIAVKVNHSYCSVPGYYPSNKPGVEPKRPCRPINLTHLMYLSSATNRITVTWGNYGKSYSVALYLVRQLTSSELLQRLKTIGVKHPELCKALVKEKLRLDPDSEIATTGVRVSLICPLVKMRLSVPCRAETCAHLQCFDAVFYLQMNEKKPTWMCPVCDKPAPYDQLIIDGLLSKILSECEDADEIEYLVDGSWCPIRAEKERSCSPQGAILVLGPSDANGLLPAPSVNGSGALGSTGGGGPVGSMENGKPGADVVDLTLDSSSSSEDEEEEEEEEEDEDEEGPRPKRRCPFQKGLVPAC", "values": [{"measurement": "binding", "setting": "[2]", "value": "no binding (only without NEM in the lysis buffer)"}, {"measurement": "binding", "setting": "[3]", "value": "binds"}]}
